# Values quoted from earlier work in patent US20040131497A1, “PROCESS FOR STERILIZATION OF BIOLOGICAL COMPOSITIONS CONTAING PROTEIN” (priority 2002, published 2004).
# For at least one compound, name, drawing or mass did not settle the structure.
# Tested on: EMC virus
# Conditions: 1.6 mmol/l rutin; cited from earlier work
smiles,measurement,value
C[C@@H]1O[C@@H](OC[C@H]2O[C@@H](Oc3c(-c4ccc(O)c(O)c4)oc4cc(O)cc(O)c4c3=O)[C@H](O)[C@@H](O)[C@@H]2O)[C@H](O)[C@H](O)[C@H]1O [rutin],effect on inactivation of EMC virus in albumin,reduction of the inactivation of EMC virus
